From patent US20120087949, “OLIGONUCLEOTIDE MICELLES” (University of Florida Research Foundation, Inc., published 2012) come the findings set out here.

Sequences of proteins named here, by UniProt entry; tags and fusion partners are left off.
UniProt P01871, whole entry: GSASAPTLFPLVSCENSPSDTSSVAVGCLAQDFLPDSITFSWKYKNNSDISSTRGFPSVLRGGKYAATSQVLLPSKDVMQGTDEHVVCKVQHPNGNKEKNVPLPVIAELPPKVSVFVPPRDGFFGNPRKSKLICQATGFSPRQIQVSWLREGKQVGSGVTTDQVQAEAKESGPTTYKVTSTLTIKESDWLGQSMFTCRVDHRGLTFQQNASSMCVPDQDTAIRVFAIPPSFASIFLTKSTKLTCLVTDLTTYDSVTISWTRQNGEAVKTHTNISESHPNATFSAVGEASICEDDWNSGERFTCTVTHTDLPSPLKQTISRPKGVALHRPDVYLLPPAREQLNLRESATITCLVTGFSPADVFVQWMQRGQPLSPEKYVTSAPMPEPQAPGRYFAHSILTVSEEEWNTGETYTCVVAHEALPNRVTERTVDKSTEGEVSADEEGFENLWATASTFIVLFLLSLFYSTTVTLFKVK

The target of series [1] is IGHM (immunoglobulin heavy mu chain), on Ramos cells (UniProt P01871). Put plainly: binding assay. To be noted: protein on the cell surface, protein details: endogenous on Ramos cells (ATCC CRL-1596), single-stranded DNA, variant of TDO5.
The target is the same in series [2]. Put plainly: flow cytometry. To be noted: Ramos cells at 37 C, 250 nM, 5 min; 5 mM MgCl2 in DPBS; protein on the cell surface; protein details: endogenous on Ramos cells (ATCC CRL-1596); label: FITC; single-stranded DNA. (In general: In flow cytometry, cells or beads pass a laser one at a time.)

Results from cells or extracts need not show a direct contact. For part of these data: A negative result means that nothing was seen under these conditions.

Regarding “AACACCGGGAGGATAGTTCGGTGGCTGTTCAGGGTCTCCTCCCGGTGATTTTTTTTTT [biotin-TDO5]”, the binding result in series [1] (immobilized aptamer captured Ramos cells in flow channel, label: 3'-biotin) is recorded as “binds”. As to “AACACCGGGAGGATAGTTCGGTGGCTGTTCAGGGTCTCCTCCCGGTGA [TDO5]”, in series [2], the binding result was “no binding”.

Turning to “AACACCGGGAGGATAGTTCGGTGGCTGTTCAGGGTCTCCTCCCGGTGA [Lipo-tdo5-TMR]”, in series [1] (5'-diacyl lipid-(PEG)4, membrane anchored, Ramos cell aggregation, abolished by proteinase K, label: 3'-TMR), the binding result is reported as “binds”.
